Paper doi:10.1101/2024.09.09.612066

T1: MBP-BIM1 (recombinant full-length) (Arabidopsis) (UniProt Q9LEZ3)
T1 sequence: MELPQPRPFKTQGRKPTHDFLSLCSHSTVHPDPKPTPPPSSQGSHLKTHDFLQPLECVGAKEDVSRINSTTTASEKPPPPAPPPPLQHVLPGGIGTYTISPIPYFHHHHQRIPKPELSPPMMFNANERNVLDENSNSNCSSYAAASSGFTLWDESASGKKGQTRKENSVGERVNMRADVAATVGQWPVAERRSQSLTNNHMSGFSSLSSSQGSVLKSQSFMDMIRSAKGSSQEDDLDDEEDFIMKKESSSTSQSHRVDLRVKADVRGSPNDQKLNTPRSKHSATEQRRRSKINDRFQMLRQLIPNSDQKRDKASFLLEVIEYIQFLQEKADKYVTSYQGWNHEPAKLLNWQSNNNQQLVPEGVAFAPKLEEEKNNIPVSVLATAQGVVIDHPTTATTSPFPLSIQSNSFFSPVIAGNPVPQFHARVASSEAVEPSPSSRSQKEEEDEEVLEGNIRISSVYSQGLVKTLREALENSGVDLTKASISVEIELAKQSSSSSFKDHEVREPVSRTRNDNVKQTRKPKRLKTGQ


How the values were obtained:
[1] = molecular target: T1, MBP-BIM1 (recombinant full-length) (Arabidopsis); experiment: pull-down
[2] = molecular target: HaRxL106 full length (HaRxL106-FL), pDEST32 bait fusion (Hyaloperonospora arabidopsidis); experiment: two-hybrid

Row | binding [1] | binding [2] | Molecule
1 | binds |  | HIS-HaRxL106 (recombinant full-length) (Hyaloperonospora arabidopsidis)
2 |  | binds | N-terminal domain of BIM1 (amino acids 1 to 278), pDEST22 prey fusion (domain or fragment, UniProt Q9LEZ3 1-278) MELPQPRPFKTQGRKPTHDFLSLCSHSTVHPDPKPTPPPSSQGSHLKTHDFLQPLECVGAKEDVSRINSTTTASEKPPPPAPPPPLQHVLPGGIGTYTISPIPYFHHHHQRIPKPELSPPMMFNANERNVLDENSNSNCSSYAAASSGFTLWDESASGKKGQTRKENSVGERVNMRADVAATVGQWPVAERRSQSLTNNHMSGFSSLSSSQGSVLKSQSFMDMIRSAKGSSQEDDLDDEEDFIMKKESSSTSQSHRVDLRVKADVRGSPNDQKLNTPR

These are yes or no findings as the source states them, for the method shown. Binding calls can cover weak binding; strength is not graded here. Tags and fused reporters may be left off the sequences shown.
